# Measured data: PubChem BioAssay AID602196 (INSERM, 2012)
# Test: 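Knock-downs that protect lung cancer cells from cisplatin or sensitise them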
# System: human A549 lung cancer cells
# Reagent: siRNA pair against human genes
# Timing: 48 h transfection before cisplatin; time from cisplatin to read-out not stated
# Challenge: cisplatin at a dose killing half of control-siRNA cells; exact dose and duration not given
# Read-out: 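Cisplatin cell death as a shift from the 50% death seen with control siRNA; siRNAs toxic or growth-blocking alone scored 0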
# Scale: two-siRNA summed score (-2 to +2): higher = both siRNAs protect from cisplatin killing; -2 means both sensitise; mean protection from cisplatin (shift in death) and protection from cisplatin (shift in death), siRNA C and protection from cisplatin (shift in death), siRNA D: higher = protection from cisplatin killing
# Rule for the call: 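siRNAs harmful alone (LDH or WST-1) get 0; others get +1 for less and -1 for more cisplatin killing; genes are active when the two siRNAs give the same sign, summing to ±2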
# Meaning of the calls: active = both siRNAs shift cisplatin killing the same way; inactive = no consistent shift, or siRNA harmful alone
# The whole screen tested about 23,000 reagents; this is a part drawn at random. 455 of all reagents (2%) were called active. 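Active includes both protection and sensitisation; some change values fall well beyond the stated -50 to +50 range.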 A number with no mark means an inactive call. Reagents against one gene are numbered here. Not stated in the record: the amount of reagent.
Target gene,reagent no.,two-siRNA summed score (-2 to +2),mean protection from cisplatin (shift in death) (%),"protection from cisplatin (shift in death), siRNA C (%)","protection from cisplatin (shift in death), siRNA D (%)"
RNF130 (GeneID 55819),1,0,13.8,24.7,2.8
LIPF (GeneID 8513),1,0,-0.8,-11.7,10
C6orf58 (GeneID 352999),1,1,13.1,9.3,16.8
CPXM1 (GeneID 56265),1,0,15.2,24.6,5.8
SLC17A5 (GeneID 26503),1,0,0.4,2.3,-1.4
LIPT1 (GeneID 51601),1,1,18.8,27.3,10.2
TOP1P1 (GeneID 7151),1,0,2,-3.8,7.7
LOC254974,1,-1,-10.6,1.3,-22.5
OSBP (GeneID 5007),1,0,4.6,2.2,6.9
TRDMT1 (GeneID 1787),1,-1,-7.1,-14.8,0.5
COMMD2 (GeneID 51122),1,0,10.6,12.8,8.3
TPM4 (GeneID 7171),1,0,7.2,6.1,8.2
AMER1 (GeneID 139285),1,-1,-5,8.8,-18.7
FAM74A4 (GeneID 401508),1,0,2.8,7.7,-2
SELENOT (GeneID 51714),1,-1,-6,-0.4,-11.7
LOC401528,1,0,9.3,9.3,9.3
GSTO1 (GeneID 9446),1,1,9.5,-1.6,20.6
ACTC1 (GeneID 70),1,0,-0.3,-3.7,3
OXT (GeneID 5020),1,1,30.7,19,42.4
PTBP3 (GeneID 9991),1,0,7.8,6.6,9
FBXO28 (GeneID 23219),1,0,0.3,0.8,-0.2
LOC440242,1,0,11.8,12.7,10.9
ARMCX4 (GeneID 100131755),1,0,-10.7,-9.4,-11.9
ARMCX4 (GeneID 100131755),2,1,14,5.9,22.2
